Measurements reported in PubChem BioAssay AID720505 (Drosophila RNAi Screening Center, 2013).
Screen: 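Knock-downs that reduce calcium influx once internal stores are emptied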 (primary screen). System: Drosophila S2R+ cells. Knock-down reagent: long dsRNA against Drosophila genes. Conditions: thapsigargin (2 µM) in calcium-free buffer to empty internal stores, then 2 mM calcium added back. Measured: 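Fluo-4 signal in 384-well plates read on a FLIPR after thapsigargin (2 µM, calcium-free) store depletion and 2 mM calcium add-back; unnormalised mean endpoint per well; screen run twice, selected wells retested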. Direction: calcium signal and retest calcium signal: higher = more calcium entry after store depletion. Active means: 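About 1500 genes called as lowering calcium entry, by varying amounts, judged against per-plate control wells with STIM1 as positive and Rho1 as negative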. Meaning of the calls: active = called as lowering calcium entry; inactive = not called.
In all, the deposit lists about 20,000 reagents; shown is an unselected part of those with a known target gene and a result. In the full data, about 2,100 (10%) are marked active. 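Raw plate signals without normalisation; calls rest on control-based scores that were not deposited; replicate 2 separates called from uncalled poorly.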 The numbers tell different reagents against one gene apart. A plus sign joins genes that one reagent is predicted to hit. Reagent sequences are not shown. Not given: the amount of reagent, the time to read-out.

Target gene	reagent no.	calcium signal, replicate 1	calcium signal, replicate 2	retest calcium signal, replicate 1	retest calcium signal, replicate 2	outcome
CG31752 (GeneID 35143)	1	132	193			inactive
CG33468 (GeneID 2768833)	1	104	183			inactive
Desi (GeneID 41292)	1	106	97.6			inactive
CG15597 (GeneID 40767)	1	115	111	109	87.6	inactive
Obp57e (GeneID 326110)	1	51	119			active
FIG4 (GeneID 33658)	1	88.4	117			inactive
Ost48 (GeneID 31849)	1	142	114			inactive
Sema1a (GeneID 34192)	1	173	150			inactive
CG15118 (GeneID 37199)	1	126	126			inactive
Mcm10 (GeneID 35390)	1	110	111			inactive
CG7872 (GeneID 32493)	1	149	127			inactive
Snr1 (GeneID 40657)	1	80	145			inactive
CG32820 + CG17450 + CG32819	1	58.8	93.7			inactive
CG32820 + CG17450 + CG32819	2	86.1	78.6			inactive
CG43068 (GeneID 12798477)	1	113	152			inactive
Cubn2 (GeneID 39334)	1	93	89.7			inactive
Cubn2 (GeneID 39334)	2	117	206			inactive
Hesr (GeneID 32800)	1	102	121			inactive
enok (GeneID 37859)	1	153	74.5			inactive
CG7548 (GeneID 38843)	1	135	104			inactive
CG13856 (GeneID 42628)	1	231	154			inactive
CG14113 (GeneID 50287)	1	81.4	88.6			inactive
Nep5 (GeneID 43255)	1	137	181			inactive
CG14687 (GeneID 41297)	1	149	133	101	124	inactive
Ttc30 (GeneID 34702)	1	58.9	55.9	96.3	76	active
Pif1A (GeneID 8674049)	1	97.1	162			inactive
Or22c (GeneID 33381)	1	132	156			inactive
Psf3 (GeneID 31967)	1	58.8	79.1			inactive
Psf3 (GeneID 31967)	2	177	107			inactive
mus81 (GeneID 31044)	1	91.6	107			active
mus81 (GeneID 31044)	2	87.3	169			inactive
scny (GeneID 38648)	1	76.8	145			inactive
scny (GeneID 38648)	2	128	90.4			inactive
scny (GeneID 38648)	3	99.4	154			inactive
CG3198 (GeneID 31602)	1	217	145			inactive
CG18467 (GeneID 36958)	1	215	190			inactive
trv (GeneID 43362)	1	185	174			inactive
trv (GeneID 43362)	2	195	179			inactive
trv (GeneID 43362)	3	193	146			inactive
CG32983 (GeneID 50434)	1	89.4	235			inactive
Phf5a (GeneID 33909)	1	93.3	93.8			inactive
nrv2 (GeneID 33953)	1	55	137			active
nrv2 (GeneID 33953)	2	45.6	136			active
CG13784 (GeneID 34003)	1	65.7	126			active
CG13784 (GeneID 34003)	2	73.9	223			inactive
CG32087 (GeneID 39323)	1	44.9	67.8			inactive
Coq5 (GeneID 32272)	1	68.9	107	6791	86.4	active
Coq5 (GeneID 32272)	2	134	142			inactive
CG14598 (GeneID 40893)	1	108	122			inactive
Gr66a (GeneID 38935)	1	91.7	80.8			inactive
Ir67b (GeneID 39194)	1	58.9	101			inactive
CG10730 (GeneID 35291)	1	76.4	67.4			active
edin (GeneID 317900)	1					inactive
CG5953 (GeneID 34985)	1	70.5	127			active
CG5953 (GeneID 34985)	2	100	99			inactive
CG31294 (GeneID 318666)	1	101	224			inactive
Rgl (GeneID 44115)	1	143	93.5			inactive
hiw (GeneID 32429)	1	84	89.3			inactive
hiw (GeneID 32429)	2	72.8	93.6			active
CG14325 (GeneID 42123)	1	142	82.2			inactive
fw (GeneID 32162)	1	127	78.3			inactive
Xrcc2 (GeneID 32837)	1	65.9	117			active
CG1571 (GeneID 31725)	1	158	92.1			inactive
CG4218 (GeneID 34848)	1	132	98.5			inactive
santa-maria (GeneID 34024)	1	126	86.6			inactive
santa-maria (GeneID 34024)	2	128	167			inactive
CG17625 (GeneID 42678)	1	154	115			inactive
CG5254 (GeneID 31020)	1	85.2	98.5			inactive
CG15443 (GeneID 33656)	1	131	100			inactive
CG5984 (GeneID 43281)	1	162	168			inactive
TFAM (GeneID 42433)	1	168	291			inactive
CG9004 (GeneID 38303)	1	120	66.8			inactive
Tep1 (GeneID 34937)	1	119	113			inactive
Pomp (GeneID 35342)	1	45.2	66.6			active
bnk (GeneID 43687)	1	174	125			inactive
CheA75a (GeneID 40011)	1	104	98.7			inactive
Hexim (GeneID 41778)	1	134	141			inactive
HP1D3csd (GeneID 32906)	1	78.4	168			active
CR31822 (GeneID 10178843)	1	189	95.8			inactive
CG31419 (GeneID 326137)	1	147	124			inactive
CG16820 (GeneID 34730)	1	114	92.9			inactive
Cyp6d4 (GeneID 42682)	1	154	222			inactive
CG7166 (GeneID 40401)	1	109	210			inactive
retn (GeneID 45976)	1	104	142			inactive
Lectin-galC1 (GeneID 35216)	1	142	88.3			inactive
14-3-3zeta (GeneID 36059)	1	160	175			inactive
pcs (GeneID 36674)	1	172	142			inactive
CG13743 (GeneID 35911)	1	120	87.6	5971	113	inactive
CG13743 (GeneID 35911)	2	162	113			inactive
CG13743 (GeneID 35911)	3	111	186			inactive
eEF1delta (GeneID 34363)	1	84.6	99.7			inactive
Usp5 (GeneID 38375)	1	84.3	98.7			inactive
CG15308 (GeneID 50415)	1	55.2	128			active
CG3085 (GeneID 37663)	1	175	124			inactive
CG31560 (GeneID 40772)	1	109	88.2			inactive
CG14668 (GeneID 40646)	1	128	154			inactive
CG2972 (GeneID 31943)	1	156	119			inactive
CG18745 (GeneID 59141)	1	109	161			inactive
dind (GeneID 42243)	1	107	189			inactive
Mybbp1A (GeneID 31010)	1	97.8	134			inactive
Not1 (GeneID 5740252)	1	167	150			inactive
Not1 (GeneID 5740252)	2	191	131			inactive
CG43106 (GeneID 12797866)	1	83.4	158			inactive
Takl2 (GeneID 42692)	1	148	89.9			inactive
Prp16 (GeneID 32373)	1	81.4	70.2			inactive
Prp16 (GeneID 32373)	2	61.1	138			active

Records listed above marked active, once more:
Target gene	reagent no.	calcium signal, replicate 1	calcium signal, replicate 2	retest calcium signal, replicate 1	retest calcium signal, replicate 2	outcome
Obp57e (GeneID 326110)	1	51	119			active
Ttc30 (GeneID 34702)	1	58.9	55.9	96.3	76	active
mus81 (GeneID 31044)	1	91.6	107			active
nrv2 (GeneID 33953)	1	55	137			active
nrv2 (GeneID 33953)	2	45.6	136			active
CG13784 (GeneID 34003)	1	65.7	126			active
Coq5 (GeneID 32272)	1	68.9	107	6791	86.4	active
CG10730 (GeneID 35291)	1	76.4	67.4			active
CG5953 (GeneID 34985)	1	70.5	127			active
hiw (GeneID 32429)	2	72.8	93.6			active
Xrcc2 (GeneID 32837)	1	65.9	117			active
Pomp (GeneID 35342)	1	45.2	66.6			active
HP1D3csd (GeneID 32906)	1	78.4	168			active
CG15308 (GeneID 50415)	1	55.2	128			active
Prp16 (GeneID 32373)	2	61.1	138			active
